Source: PubChem BioAssay AID588590 (National Center for Advancing Translational Sciences (NCATS), 2011)
About 4,000 (1%) of roughly 390,000 compounds were called active. Inconclusive results, whose numbers are uncertain, are shown with a selection of clear calls. Calls follow the shape of the dose curve; as a rule, active = well fitted inhibition curve with a large enough effect; inconclusive = small, poorly fitted or top-dose-only effect, or another doubt; inactive = no such curve, though single readings can be large or run the other way. Potencies of inconclusive entries are doubtful fits and often do not repeat.

Chains of the proteins cited; added tags and fusions are not shown. Lines headed by an entry give the natural chain unless they say otherwise; changes in a name come on top.
UniProt Q9UNA4: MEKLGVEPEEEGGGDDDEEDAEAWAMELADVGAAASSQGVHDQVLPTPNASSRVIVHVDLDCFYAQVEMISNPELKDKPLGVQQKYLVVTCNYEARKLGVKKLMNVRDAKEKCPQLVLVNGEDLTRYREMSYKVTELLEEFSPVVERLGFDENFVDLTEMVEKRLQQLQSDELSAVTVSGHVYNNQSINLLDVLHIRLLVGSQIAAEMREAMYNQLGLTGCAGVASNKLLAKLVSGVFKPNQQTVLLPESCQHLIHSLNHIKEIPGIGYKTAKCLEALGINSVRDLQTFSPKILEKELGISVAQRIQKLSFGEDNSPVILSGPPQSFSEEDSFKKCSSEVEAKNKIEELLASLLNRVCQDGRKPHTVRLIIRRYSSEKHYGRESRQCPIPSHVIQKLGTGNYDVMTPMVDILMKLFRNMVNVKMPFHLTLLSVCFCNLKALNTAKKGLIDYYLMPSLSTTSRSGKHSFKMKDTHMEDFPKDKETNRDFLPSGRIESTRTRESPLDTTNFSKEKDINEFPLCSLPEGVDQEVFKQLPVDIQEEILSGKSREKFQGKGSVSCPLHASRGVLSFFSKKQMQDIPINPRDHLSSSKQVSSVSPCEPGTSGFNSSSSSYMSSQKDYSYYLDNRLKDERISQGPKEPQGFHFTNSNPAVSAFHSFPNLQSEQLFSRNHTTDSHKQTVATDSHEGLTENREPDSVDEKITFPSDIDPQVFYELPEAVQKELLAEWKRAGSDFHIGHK

The molecules below were run against DNA polymerase iota (Homo sapiens) (UniProt Q9UNA4) (assay: qHTS for Inhibitors of Polymerase Iota). Conditions: Pol iota fluorescent replication assay, 10 min; series mostly up to 115 µM; activity, negative = inhibition: at the top concentration.
How it was run: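 Pol iota at 10 nM preincubated 15 min with compounds at room temperature; reaction started with fluorescent substrate, 50 nM final. Fluorescence read kinetically at 0 and 10 min; buffer-only wells as negative control.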
Potency is read from the fitted curve at half-maximal effect.

With `CCOC(=O)c1c2c(c(=S)n(-c3ccccc3)c1N)CCC2` as the molecule, how does the Potency read?
The Potency was inconclusive: 39.8 µM [inhibitor, single point].

`CCOC(=O)c1c(S(=O)(=O)NCC(=O)NCc2cccc(C)c2)c(C)n(C)c1C` was tested. Which Potency did it give?
The Potency was “inactive”.

`Cc1cccn2c(=O)c(C=O)c(N3CCSCC3)nc12` was tested. Which Potency did it give?
The Potency was inconclusive: 10 µM [inhibitor, full curve, poor fit].

With `Cc1ccc(C)c(N(CC(N)=O)S(C)(=O)=O)c1` as the molecule, how does the Potency read?
Its Potency is inconclusive: 3.98 µM [inhibitor, single point].

With `O=c1[nH]c2cc(F)ccc2c2ccc(F)cc12` as the molecule, how does the Potency read?
The Potency was inconclusive: 56.2 µM [inhibitor, partial curve, poor fit].

Which “activity, negative = inhibition” value does the source give for `Cc1c(-n2cc(C(=O)c3cc(F)ccc3O)cc(C#N)c2=O)c(=O)n(-c2ccccc2)n1C` here?
Its value is inactive: 73.9%.

For `CCOc1cc(C2Nc3cccc4cccc(c34)N2)ccc1O`, which Potency is on record?
Its Potency is inconclusive: 22.4 µM [inhibitor, partial curve].

Which “activity, negative = inhibition” value does the source give for `OC(C[n+]1ccccc1Cl)c1ccccc1` (stereo not drawn) here?
The value was inactive: 37.8%.

For `O=C(CCNC(=O)c1ccccc1Cl)NCCC1=CCCCC1`, which “activity, negative = inhibition” value is on record?
Its value is inactive: 31.4%.

How did the Potency turn out when `Cc1cccc(C(=O)Nc2nnc(S(=O)(=O)N(C)Cc3ccco3)s2)c1` was run?
The Potency was inconclusive: 44.7 µM [inhibitor, partial curve].

Which Potency does the source give for `CCc1ccc(NC(=O)COC(=O)/C=C/c2c(C)nn(C3CCS(=O)(=O)C3)c2Cl)cc1` (stereo not drawn) here?
The Potency was inconclusive: 100 µM [inhibitor, single point].

For `CC(C)NCCOCCSc1ccc(Cl)cc1`, which Potency is on record?
The Potency was inconclusive: 20 µM [inhibitor, partial curve, poor fit].

`CC(=O)NCC1(O)CCCC(C)C1` (stereo not drawn) was tested. Which “activity, negative = inhibition” value did it give?
The value was inactive: -11.1%.

With `Cc1ccc(-c2csc(=Nc3ccc(F)cc3)n2Cc2ccc3c(c2)OCO3)cc1C` as the molecule, how does the “activity, negative = inhibition” value read?
Its value is inactive: -28.5%.

`Cc1cc(C)nc(NN=CC2=C(N3CCOCC3)/C(=C/c3ccc(Cl)cc3)CC2)n1` was tested. Which Potency did it give?
The Potency was inconclusive: 15.8 µM [inhibitor, full curve].

Which Potency does the source give for `N#Cc1cccc(NC(=O)Cn2cnc(S(=O)(=O)N3CCc4ccccc43)c2)c1` here?
The Potency was inconclusive: 89.1 µM [inhibitor, partial curve, poor fit].

For `COC(=O)c1c(C)oc2ccc(N(C(=O)c3ccncc3)S(=O)(=O)c3ccc(C)cc3)cc12`, which Potency is on record?
The Potency was inconclusive: 31.6 µM [inhibitor, single point].

How did the “activity, negative = inhibition” value turn out when `Cc1ccc2nc(SC(C)C(=O)NC3CCCc4ccccc43)[nH]c2c1` (stereo not drawn) was run?
Its value is inactive: 10.7%.

Which “activity, negative = inhibition” value does the source give for `COc1ccc(S(=O)(=O)Nc2ccccn2)cc1C(=O)Nc1ccccc1` here?
The value was inactive: 14.4%.

With `CCN1C2=C(C(=O)CCC2)C(c2ccc(O)c(Br)c2)C2=C1CCCC2=O` as the molecule, how does the Potency read?
Its Potency is inconclusive: 20 µM [inhibitor, partial curve, poor fit].

With `CCC(=O)Oc1ccc(/C(CC)=C(\CC)c2ccc(OC(=O)CC)cc2)cc1` as the molecule, how does the Potency read?
The Potency was inconclusive: 79.4 µM [inhibitor, single point].

For `O=C(N/N=C/C=C/c1ccccc1[N+](=O)[O-])c1cc(-c2ccccc2)n[nH]1`, which Potency is on record?
Its Potency is inconclusive: 100 µM [inhibitor, partial curve, poor fit].

How did the “activity, negative = inhibition” value turn out when `CS(=O)(=O)c1ccc(C(=O)OCC(=O)N2CCc3ccccc32)cc1[N+](=O)[O-]` was run?
Its value is inactive: 1.34%.

Which Potency does the source give for `CN(C)c1ccc(C2NCC(CCl)O2)cc1` (stereo not drawn) here?
The Potency was inconclusive: 22.4 µM [inhibitor, partial curve, poor fit].

With `CC1=C(C(=O)Nc2cccnc2)C(c2ccccc2)n2nc(-c3ccc(O)cc3)nc2N1` (stereo not drawn) as the molecule, how does the Potency read?
The Potency was inconclusive: 10 µM [inhibitor, partial curve, poor fit].

With `COc1ccc(NC(=O)c2ccc3c(=O)n4nc(Nc5cccc(Cl)c5C)sc4nc3c2)cc1` as the molecule, how does the “activity, negative = inhibition” value read?
Its value is inactive: -14.2%.

Which Potency does the source give for `COc1ccc2nc(C)cc(SCC(=O)OC(C)C)c2c1` here?
The Potency was inconclusive: 100 µM [inhibitor, single point].

With `CCOC(=O)c1c(Cc2ccc(Cl)cc2)c[nH]c1C` as the molecule, how does the Potency read?
Its Potency is inconclusive: 63.1 µM [inhibitor, partial curve, poor fit].

Which “activity, negative = inhibition” value does the source give for `CC(=O)N1CCCc2cc(S(=O)(=O)N3CCCC(C(=O)Nc4cc(Cl)ccc4C)C3)ccc21` (stereo not drawn) here?
The value was inactive: 15.9%.

Which Potency does the source give for `CCC(=O)Nc1cccc2cccnc12` here?
The Potency was inconclusive: 79.4 µM [inhibitor, single point].

`COc1cc(NC(=O)c2cnc(N)s2)cc(C(=O)Nc2cccc(C(F)(F)F)c2)c1` was tested. Which Potency did it give?
Its Potency is active: 2.24 µM.

`O=C(Nc1cccc(NC(=O)c2cccnc2)c1)c1cccnc1` was tested. Which Potency did it give?
Its Potency is inconclusive: 79.4 µM [inhibitor, partial curve, poor fit].

For `COc1ccc(OC)c(C(=O)COC(=O)c2ccc([N+](=O)[O-])o2)c1`, which Potency is on record?
The Potency was inconclusive: 12.6 µM [inhibitor, partial curve, poor fit].

For `Cc1c(C(=O)OC2CCCC2)[nH]c2c1C(=O)CC(c1ccco1)C2` (stereo not drawn), which Potency is on record?
Its Potency is inconclusive: 50.1 µM [inhibitor, partial curve, poor fit].

With `O=C(CN1C(=O)COc2ccc(S(=O)(=O)N3CCOCC3)cc21)N1CCN(c2ccccc2)CC1` as the molecule, how does the “activity, negative = inhibition” value read?
Its value is inactive: 27.2%.

`Cc1ccc(C(=O)CSC2=C(C#N)C(c3ccco3)C3=C(CCCC3=O)N2)cc1` (stereo not drawn) was tested. Which Potency did it give?
Its Potency is inconclusive: 15.8 µM [inhibitor, full curve].

Which Potency does the source give for `Cc1cccc(C)c1NC(=O)CN1CCN(C(=O)c2ccc(OCc3cn4ccccc4n3)cc2)CC1` here?
Its Potency is inconclusive: 56.2 µM [inhibitor, partial curve, poor fit].

How did the “activity, negative = inhibition” value turn out when `O=C(O)CCC(=O)Nc1ccc(-c2nnc(-c3ccco3)o2)cc1` was run?
Its value is inactive: -11.2%.

How did the Potency turn out when `Cc1cccc(CN2CCN(CC(=O)NCc3ccc(Cl)cc3)C2=O)c1` was run?
Its Potency is inconclusive: 100 µM [inhibitor, single point].

With `COc1ccc(CC(=O)O/N=C(\N)c2ccc(Br)cc2)cc1OC` as the molecule, how does the Potency read?
Its Potency is inconclusive: 89.1 µM [inhibitor, partial curve, poor fit].

How did the Potency turn out when `Cc1ccc(C2=NN3C(C(=O)c4ccccc4)Oc4ccccc4C3C2)cc1` (stereo not drawn) was run?
Its Potency is inconclusive: 44.7 µM [inhibitor, partial curve, poor fit].

For `C=CCc1ccccc1OCC(=O)O`, which Potency is on record?
The Potency was inconclusive: 70.8 µM [inhibitor, partial curve].

With `CCNC(=O)N1CCN(S(=O)(=O)c2ccc3c(c2)OCCCO3)CC1` as the molecule, how does the Potency read?
Its Potency is inconclusive: 89.1 µM [inhibitor, single point].
